From patent US20230250454A1
No constants are given. Whether binding was seen depends on the method and setting. Some results given as binding are weak or reduced against the parent protein; the word gives no strength. Sequences can lack the tags named with a protein.

Biological target: MLT transposase of the present disclosure (Myotis lucifugus transposase, purified, MBP tag removed by TEV protease) (Myotis lucifugus (engineered: L573del, E574del, S2A))
Assay: Superdex 200 size exclusion chromatography of purified protein (self-association, homodimer)

binding: binds
B1: MLT transposase of the present disclosure (Myotis lucifugus transposase, purified, MBP tag removed by TEV protease) (enzyme)
chain: MAQHSDYSDDEFCADKLSNYSCDSDLENASTSDEDSSDDEVMVRPRTLRRRRISSSSSDSESDIEGGREEWSHVDNPPVLEDFLGHQGLNTDAVINNIEDAVKLFIGDDFFEFLVEESNRYYNQNRNNFKLSKKSLKWKDITPQEMKKFLGLIVLMGQVRKDRRDDYWTTEPWTETPYFGKTMTRDRFRQIWKAWHFNNNADIVNESDRLCKVRPVLDYFVPKFINIYKPHQQLSLDEGIVPWRGRLFFRVYNAGKIVKYGILVRLLCESDTGYICNMEIYCGEGKRLLETIQTVVSPYTDSWYHIYMDNYYNSVANCEALMKNKFRICGTIRKNRGIPKDFQTISLKKGETKFIRKNDILLQVWQSKKPVYLISSIHSAEMEESQNIDRTSKKKIVKPNALIDYNKHMKGVDRADQYLSYYSILRRTVKWTKRLAMYMINCALFNSYAVYKSVRQRKMGFKMFLKQTAIHWLTDDIPEDMDIVPDLQPVPSTSGMRAKPPTSDPPCRLSMDMRKHTLQAIVGSGKKKNILRRCRVCSVHKLRSETRYMCKFCNIPLHKGACFEKYHTLKNY
